In US20140005235A1, “INSECTICIDAL COMPOUNDS” (SYNGENTA PARTICIPATIONS AG, priority 2011, published 2014):
Some entries share one result that the patent states for a list of compounds.

Legend:
Type in all cases: in vivo
Spodoptera littoralis = Spodoptera littoralis (Egyptian cotton leafworm) leaf disc spray test; conditions: application rate 200 ppm, sprayed cotton leaf discs, 5 L1 larvae, mortality, feeding behavior, growth regulation 3 DAT
Tetranychus urticae = Tetranychus urticae (two-spotted spider mite) bean leaf disc spray test; conditions: application rate 200 ppm, sprayed bean leaf discs, mite populations of mixed ages, egg, larval and adult mortality after 8 days
Diabrotica balteata = Diabrotica balteata (corn root worm) artificial diet MTP test; conditions: application rate 200 ppm (concentration in well 18 ppm), L2 larvae, larval mortality and growth regulation after 5 days
Heliothis virescens = Heliothis virescens (tobacco budworm) egg test on artificial diet; conditions: application rate 200 ppm (concentration in well 18 ppm), eggs 0-24 h old on artificial diet, egg mortality, larval mortality, growth regulation after 4 days
Plutella xylostella = Plutella xylostella (diamond back moth) artificial diet MTP test; conditions: application rate 200 ppm (concentration in well 18 ppm), L2 larvae, larval mortality and growth regulation after 6 days

O=C(Nc1c(Cl)cc(C(F)(C(F)(F)F)C(F)(F)F)cc1Cl)c1ccc(C(=O)NC2C[S+]([O-])C2)c2ccccc12 (centres unmarked) [Compound A20]
at least 80%: control of Spodoptera littoralis (Spodoptera littoralis) | control of Tetranychus urticae (Tetranychus urticae) | control of Diabrotica balteata (Diabrotica balteata) | control of Heliothis virescens (Heliothis virescens) | control of Plutella xylostella (Plutella xylostella)

O=C(Nc1c(Cl)cc(C(F)(C(F)(F)F)C(F)(F)F)cc1Cl)c1ccc(C(=O)NC2CSC2)c2ccccc12 [Compound A21]
at least 80%: control of Spodoptera littoralis (Spodoptera littoralis) | control of Tetranychus urticae (Tetranychus urticae) | control of Heliothis virescens (Heliothis virescens) | control of Plutella xylostella (Plutella xylostella)

O=C(Nc1c(Cl)cc(C(F)(C(F)(F)F)C(F)(F)F)cc1Cl)c1ccc(C(=O)NC2CS(=O)(=O)C2)c2ccccc12 [Compound A12]
at least 80%: control of Spodoptera littoralis (Spodoptera littoralis) | control of Tetranychus urticae (Tetranychus urticae) | control of Diabrotica balteata (Diabrotica balteata) | control of Heliothis virescens (Heliothis virescens) | control of Plutella xylostella (Plutella xylostella)
